Measured values taken from patent US6608036B1, “Oligonucleotide N3′→P5′ thiophosphoramidates: their synthesis and administration to treat neoplasms” (Geron Corporation, priority 1999, dated 2003).
Some entries share one result that the patent states for a list of compounds.

Legend:
[1] = test system: telomerase (affinity-purified extract from 293 cells over-expressing hTERT); test: Bio-Tel FlashPlate telomerase activity assay; format: biochemical, human; conditions: thiophosphoramidate oligonucleotides
HME50-5E cells = test: Cell growth / crisis of HME50-5E cells; format: cell-based, human; conditions: about 0.1 μM to about 20 μM (FIG. 6)

Substance	IC50 [1]	time until cells entered crisis (HME50-5E cells)
5′-GTTAGGGTTAG-3′ (listed as DNA, chemistry not fully specified) [SEQ ID NO:1 thiophosphoramidate]	< 1 nM	
CAGTTAGGGTTAG (listed as DNA, chemistry not fully specified) [SEQ ID NO:8 thiophosphoramidate]		≤ 100 days
